These are yes or no findings as the source states them, for the method shown. Binding seen in cells or lysates may run through a third protein. Some entries that bind do so weakly or less than the wild type. For part of these data: Where a sequence is shown, tags or fusion partners need not be part of it.
Legend:
[1] = molecular target: HA-BABAM2 (UniProt Q9NXR7); assay: co-IP; exogenously expressed HA-BABAM2 and Flag-MDM2; cells and precipitating antibody not told
[2] = molecular target: endogenously expressed BABAM2 (human (endogenous in A549)) (UniProt Q9NXR7); assay: co-IP; endogenous MDM2 and BABAM2 in A549 cells; precipitating antibody not told
[3] = molecular target: T1, GST-PPDPF (human) (UniProt Q9H3Y8); assay: pull-down; fusion protein GST-PPDPF with endogenously expressed BABAM2 of A549 cells; conditions not given; only the target purified
T1 sequence: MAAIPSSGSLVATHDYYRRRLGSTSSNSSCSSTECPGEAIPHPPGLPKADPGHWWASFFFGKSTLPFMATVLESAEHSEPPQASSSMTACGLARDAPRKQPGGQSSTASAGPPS

Chains of the proteins cited; added tags and fusions are not shown.
UniProt Q9NXR7: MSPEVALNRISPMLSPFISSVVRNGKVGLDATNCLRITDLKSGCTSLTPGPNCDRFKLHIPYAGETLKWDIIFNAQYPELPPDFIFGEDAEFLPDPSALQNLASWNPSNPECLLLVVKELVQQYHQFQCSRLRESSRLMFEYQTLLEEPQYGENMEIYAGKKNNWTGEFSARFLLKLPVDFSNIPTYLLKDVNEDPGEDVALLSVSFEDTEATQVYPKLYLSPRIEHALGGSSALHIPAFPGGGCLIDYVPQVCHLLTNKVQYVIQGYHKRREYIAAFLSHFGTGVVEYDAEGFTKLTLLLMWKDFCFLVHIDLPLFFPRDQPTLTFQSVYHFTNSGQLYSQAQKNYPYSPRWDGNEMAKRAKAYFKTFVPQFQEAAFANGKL
UniProt Q00987: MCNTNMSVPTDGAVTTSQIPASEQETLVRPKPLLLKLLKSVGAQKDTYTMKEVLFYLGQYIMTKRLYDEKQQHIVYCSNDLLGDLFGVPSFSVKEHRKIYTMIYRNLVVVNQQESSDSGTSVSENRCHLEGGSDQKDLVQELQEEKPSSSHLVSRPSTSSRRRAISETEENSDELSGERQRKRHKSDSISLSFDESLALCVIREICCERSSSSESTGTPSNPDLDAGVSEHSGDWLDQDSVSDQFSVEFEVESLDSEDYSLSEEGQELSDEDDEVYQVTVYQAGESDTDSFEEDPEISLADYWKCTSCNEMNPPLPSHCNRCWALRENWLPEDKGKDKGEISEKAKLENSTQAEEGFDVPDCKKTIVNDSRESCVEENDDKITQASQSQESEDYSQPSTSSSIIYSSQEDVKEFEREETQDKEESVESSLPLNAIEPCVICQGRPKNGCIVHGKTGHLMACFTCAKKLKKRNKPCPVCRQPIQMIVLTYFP

## Flag-MDM2 (from UniProt Q00987 1-491)
[1]
  binding: binds

## endogenous MDM2 (from UniProt Q00987 1-491)
[2]
  binding: binds

## endogenously expressed BABAM2 (from UniProt Q9NXR7 1-383)
[3]
  binding: binds
